Results published in the supplement of paper PMC6411743.
± gives the standard deviation of the averaged measurements. Only a part is listed here, and it is no random draw. Most entries show no effect beyond the scatter of the controls.

The chains behind the UniProt entries cited, without tags or fusion partners. Where a name states a change or a piece, a line headed by the entry shows the natural chain unless it says otherwise.
UniProt P63313: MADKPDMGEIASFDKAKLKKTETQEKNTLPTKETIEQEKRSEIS
UniProt P60953, whole entry, looked up: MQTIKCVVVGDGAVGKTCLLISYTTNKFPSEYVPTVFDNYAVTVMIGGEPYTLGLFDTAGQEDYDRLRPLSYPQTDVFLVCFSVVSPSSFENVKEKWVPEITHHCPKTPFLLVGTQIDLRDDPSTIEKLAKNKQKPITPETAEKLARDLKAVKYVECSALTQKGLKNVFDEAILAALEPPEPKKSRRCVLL
UniProt P68371, whole entry: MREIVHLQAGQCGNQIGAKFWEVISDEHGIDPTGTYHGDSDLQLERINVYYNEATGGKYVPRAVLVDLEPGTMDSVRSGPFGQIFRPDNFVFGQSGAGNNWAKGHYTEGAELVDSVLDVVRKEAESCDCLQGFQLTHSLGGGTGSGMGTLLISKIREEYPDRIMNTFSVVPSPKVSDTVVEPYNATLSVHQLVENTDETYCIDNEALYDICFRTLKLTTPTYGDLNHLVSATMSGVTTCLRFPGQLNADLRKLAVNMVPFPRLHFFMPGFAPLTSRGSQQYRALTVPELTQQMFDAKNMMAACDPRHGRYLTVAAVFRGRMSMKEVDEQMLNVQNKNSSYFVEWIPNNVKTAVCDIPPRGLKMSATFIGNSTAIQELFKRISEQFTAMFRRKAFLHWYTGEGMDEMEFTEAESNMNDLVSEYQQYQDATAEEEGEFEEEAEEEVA
UniProt P53990, whole entry: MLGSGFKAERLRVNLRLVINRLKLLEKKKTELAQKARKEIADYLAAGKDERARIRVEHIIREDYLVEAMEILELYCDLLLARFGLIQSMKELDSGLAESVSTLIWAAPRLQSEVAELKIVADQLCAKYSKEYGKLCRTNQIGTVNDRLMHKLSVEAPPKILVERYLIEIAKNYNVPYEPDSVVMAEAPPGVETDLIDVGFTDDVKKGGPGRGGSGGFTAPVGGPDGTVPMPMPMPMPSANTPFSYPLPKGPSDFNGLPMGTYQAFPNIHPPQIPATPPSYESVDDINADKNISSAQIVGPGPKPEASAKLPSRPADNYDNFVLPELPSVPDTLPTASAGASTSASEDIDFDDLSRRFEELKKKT
UniProt P61018: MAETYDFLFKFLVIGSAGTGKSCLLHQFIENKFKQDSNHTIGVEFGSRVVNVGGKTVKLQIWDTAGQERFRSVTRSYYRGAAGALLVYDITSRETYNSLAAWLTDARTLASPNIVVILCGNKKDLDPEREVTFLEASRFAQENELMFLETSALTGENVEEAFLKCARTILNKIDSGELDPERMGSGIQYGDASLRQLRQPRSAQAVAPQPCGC
UniProt P55160: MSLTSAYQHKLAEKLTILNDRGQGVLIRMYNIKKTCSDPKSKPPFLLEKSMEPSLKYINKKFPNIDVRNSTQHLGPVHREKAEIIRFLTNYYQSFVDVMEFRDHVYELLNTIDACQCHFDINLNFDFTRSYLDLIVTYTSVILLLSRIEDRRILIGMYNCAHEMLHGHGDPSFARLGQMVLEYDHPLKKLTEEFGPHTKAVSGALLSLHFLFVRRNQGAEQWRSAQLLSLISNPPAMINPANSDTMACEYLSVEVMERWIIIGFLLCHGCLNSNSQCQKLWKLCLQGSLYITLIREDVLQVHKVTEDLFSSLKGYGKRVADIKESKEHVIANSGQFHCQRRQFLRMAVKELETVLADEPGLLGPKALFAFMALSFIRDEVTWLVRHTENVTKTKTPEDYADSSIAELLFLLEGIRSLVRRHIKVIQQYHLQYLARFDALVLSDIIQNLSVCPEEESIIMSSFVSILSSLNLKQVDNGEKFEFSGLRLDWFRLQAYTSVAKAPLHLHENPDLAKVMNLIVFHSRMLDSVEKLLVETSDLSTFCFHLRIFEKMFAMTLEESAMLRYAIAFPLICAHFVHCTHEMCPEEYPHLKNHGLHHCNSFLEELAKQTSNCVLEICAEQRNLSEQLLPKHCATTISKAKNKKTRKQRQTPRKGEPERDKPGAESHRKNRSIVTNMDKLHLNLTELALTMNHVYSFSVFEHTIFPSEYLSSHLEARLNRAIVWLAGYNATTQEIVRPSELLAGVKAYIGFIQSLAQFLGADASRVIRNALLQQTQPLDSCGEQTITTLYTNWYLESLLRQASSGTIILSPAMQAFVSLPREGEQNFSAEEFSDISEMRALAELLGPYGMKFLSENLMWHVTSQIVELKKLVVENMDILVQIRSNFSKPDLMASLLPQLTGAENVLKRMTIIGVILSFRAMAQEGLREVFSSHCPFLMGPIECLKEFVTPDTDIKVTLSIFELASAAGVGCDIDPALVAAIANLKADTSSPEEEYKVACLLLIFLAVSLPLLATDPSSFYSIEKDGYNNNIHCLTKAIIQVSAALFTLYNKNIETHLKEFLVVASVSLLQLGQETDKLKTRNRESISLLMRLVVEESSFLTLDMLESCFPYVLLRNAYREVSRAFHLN
UniProt P84022, whole entry, looked up: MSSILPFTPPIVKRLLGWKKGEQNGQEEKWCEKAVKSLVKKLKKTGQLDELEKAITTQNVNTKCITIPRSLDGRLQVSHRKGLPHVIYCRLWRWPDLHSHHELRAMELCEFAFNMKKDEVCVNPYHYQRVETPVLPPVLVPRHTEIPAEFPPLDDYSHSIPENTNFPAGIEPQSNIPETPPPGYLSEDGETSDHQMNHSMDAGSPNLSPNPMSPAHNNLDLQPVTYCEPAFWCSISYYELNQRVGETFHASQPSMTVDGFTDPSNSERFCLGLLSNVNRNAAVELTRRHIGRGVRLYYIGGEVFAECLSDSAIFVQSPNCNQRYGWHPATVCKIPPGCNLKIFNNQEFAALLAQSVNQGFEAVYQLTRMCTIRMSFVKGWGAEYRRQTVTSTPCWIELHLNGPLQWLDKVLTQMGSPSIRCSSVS
UniProt Q00013: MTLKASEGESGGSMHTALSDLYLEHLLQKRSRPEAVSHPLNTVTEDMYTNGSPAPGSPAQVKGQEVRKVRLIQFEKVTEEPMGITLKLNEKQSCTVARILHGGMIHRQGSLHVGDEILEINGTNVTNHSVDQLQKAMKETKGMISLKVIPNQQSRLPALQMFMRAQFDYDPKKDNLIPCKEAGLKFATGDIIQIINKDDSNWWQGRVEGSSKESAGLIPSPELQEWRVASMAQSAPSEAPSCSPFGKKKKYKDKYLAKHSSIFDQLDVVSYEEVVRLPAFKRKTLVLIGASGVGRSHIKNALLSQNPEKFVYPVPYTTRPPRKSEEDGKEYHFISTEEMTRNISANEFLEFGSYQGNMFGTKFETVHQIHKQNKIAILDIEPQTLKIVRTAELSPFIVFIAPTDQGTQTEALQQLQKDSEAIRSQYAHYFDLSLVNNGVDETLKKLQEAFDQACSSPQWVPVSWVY
UniProt P53805: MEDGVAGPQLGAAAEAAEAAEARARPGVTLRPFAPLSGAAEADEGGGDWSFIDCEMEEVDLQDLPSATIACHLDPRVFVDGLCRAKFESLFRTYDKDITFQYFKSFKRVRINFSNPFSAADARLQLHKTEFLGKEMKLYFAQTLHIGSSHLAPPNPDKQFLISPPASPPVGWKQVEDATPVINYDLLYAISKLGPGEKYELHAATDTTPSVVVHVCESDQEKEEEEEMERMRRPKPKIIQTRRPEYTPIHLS
UniProt P62072: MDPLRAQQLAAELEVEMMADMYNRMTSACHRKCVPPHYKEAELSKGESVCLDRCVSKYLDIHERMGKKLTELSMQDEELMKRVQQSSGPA
UniProt P98170, whole entry: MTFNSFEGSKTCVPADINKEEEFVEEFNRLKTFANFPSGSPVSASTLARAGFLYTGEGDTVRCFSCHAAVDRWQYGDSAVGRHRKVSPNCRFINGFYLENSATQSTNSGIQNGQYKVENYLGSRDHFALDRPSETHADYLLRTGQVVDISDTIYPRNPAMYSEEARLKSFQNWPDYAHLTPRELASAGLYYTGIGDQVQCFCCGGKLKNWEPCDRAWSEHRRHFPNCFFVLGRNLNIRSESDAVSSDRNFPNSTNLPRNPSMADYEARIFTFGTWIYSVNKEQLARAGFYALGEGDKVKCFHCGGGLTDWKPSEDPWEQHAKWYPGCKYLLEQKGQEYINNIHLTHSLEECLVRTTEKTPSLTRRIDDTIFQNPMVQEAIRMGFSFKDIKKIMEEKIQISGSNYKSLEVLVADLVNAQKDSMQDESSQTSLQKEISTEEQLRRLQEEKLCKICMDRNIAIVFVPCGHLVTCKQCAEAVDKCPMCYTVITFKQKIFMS
UniProt P53004: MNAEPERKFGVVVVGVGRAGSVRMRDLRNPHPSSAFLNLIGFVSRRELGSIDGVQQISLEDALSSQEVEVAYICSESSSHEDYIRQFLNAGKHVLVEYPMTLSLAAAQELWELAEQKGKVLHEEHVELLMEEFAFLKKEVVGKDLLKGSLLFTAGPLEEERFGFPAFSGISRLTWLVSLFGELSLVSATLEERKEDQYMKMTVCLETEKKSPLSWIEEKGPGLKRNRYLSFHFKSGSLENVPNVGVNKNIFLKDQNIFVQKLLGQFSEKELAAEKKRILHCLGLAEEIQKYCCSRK
UniProt P54132: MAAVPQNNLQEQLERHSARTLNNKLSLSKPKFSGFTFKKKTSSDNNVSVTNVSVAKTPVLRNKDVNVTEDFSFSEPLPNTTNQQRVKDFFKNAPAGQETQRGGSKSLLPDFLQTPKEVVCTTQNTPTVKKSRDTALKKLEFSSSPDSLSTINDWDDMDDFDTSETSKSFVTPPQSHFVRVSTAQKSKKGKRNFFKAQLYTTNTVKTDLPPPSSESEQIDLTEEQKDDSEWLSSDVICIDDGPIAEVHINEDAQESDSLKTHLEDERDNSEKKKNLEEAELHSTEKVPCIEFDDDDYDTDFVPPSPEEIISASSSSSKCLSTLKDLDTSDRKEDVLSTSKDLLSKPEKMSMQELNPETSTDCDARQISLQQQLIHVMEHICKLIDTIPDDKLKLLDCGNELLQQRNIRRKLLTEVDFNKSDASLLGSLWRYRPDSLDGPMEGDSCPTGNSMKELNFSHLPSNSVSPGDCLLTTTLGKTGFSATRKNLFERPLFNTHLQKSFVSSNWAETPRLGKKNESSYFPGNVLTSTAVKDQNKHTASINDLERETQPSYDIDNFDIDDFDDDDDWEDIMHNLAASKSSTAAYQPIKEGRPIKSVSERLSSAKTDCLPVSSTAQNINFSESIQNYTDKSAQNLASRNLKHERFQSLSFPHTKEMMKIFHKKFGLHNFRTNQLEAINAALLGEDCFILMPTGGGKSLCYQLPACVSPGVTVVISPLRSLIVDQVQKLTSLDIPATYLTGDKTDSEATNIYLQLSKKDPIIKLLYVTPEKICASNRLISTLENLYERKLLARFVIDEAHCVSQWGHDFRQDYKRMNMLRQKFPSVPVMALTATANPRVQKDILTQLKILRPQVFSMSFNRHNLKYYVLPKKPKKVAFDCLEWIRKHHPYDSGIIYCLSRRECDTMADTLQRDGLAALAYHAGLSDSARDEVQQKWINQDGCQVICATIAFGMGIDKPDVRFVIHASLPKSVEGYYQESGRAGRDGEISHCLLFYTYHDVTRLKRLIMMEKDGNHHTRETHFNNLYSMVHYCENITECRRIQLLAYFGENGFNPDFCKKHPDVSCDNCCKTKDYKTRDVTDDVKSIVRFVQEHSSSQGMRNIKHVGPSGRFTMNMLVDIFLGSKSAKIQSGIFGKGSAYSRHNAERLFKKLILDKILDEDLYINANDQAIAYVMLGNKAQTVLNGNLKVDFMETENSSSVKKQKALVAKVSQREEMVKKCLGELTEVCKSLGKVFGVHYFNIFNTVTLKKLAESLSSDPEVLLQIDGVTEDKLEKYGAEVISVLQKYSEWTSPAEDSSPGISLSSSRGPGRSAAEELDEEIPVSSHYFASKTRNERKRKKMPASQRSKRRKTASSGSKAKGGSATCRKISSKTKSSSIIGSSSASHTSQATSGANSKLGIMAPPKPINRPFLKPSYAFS
UniProt P56937: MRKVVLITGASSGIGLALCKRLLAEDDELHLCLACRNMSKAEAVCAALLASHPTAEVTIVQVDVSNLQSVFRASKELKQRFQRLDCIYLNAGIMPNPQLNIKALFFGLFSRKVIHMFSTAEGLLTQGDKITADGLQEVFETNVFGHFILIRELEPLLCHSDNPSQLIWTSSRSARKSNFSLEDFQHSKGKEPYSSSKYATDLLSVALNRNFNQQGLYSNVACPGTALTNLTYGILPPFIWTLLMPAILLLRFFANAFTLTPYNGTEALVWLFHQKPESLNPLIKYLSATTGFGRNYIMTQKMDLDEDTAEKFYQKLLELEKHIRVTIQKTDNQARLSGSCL
UniProt P60842, whole entry: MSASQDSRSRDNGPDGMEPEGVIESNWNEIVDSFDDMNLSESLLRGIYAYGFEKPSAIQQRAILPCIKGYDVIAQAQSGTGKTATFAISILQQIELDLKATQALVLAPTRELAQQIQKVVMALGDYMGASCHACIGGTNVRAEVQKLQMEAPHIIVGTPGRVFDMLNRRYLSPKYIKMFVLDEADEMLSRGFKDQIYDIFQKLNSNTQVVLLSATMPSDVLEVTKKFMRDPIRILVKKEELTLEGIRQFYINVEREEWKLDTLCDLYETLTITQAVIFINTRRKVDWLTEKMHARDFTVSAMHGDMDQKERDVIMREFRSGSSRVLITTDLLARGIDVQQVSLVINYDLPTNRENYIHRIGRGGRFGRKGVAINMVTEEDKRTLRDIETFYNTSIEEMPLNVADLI

Compound: Nc1ncnc2c1ncn2[C@@H]1O[C@H](COP(=O)(O)OP(=O)(O)OP(=O)(O)O)[C@@H](O)[C@H]1O [adenosine triphosphate]
Assay: NP40-soluble protein abundance relative to vehicle (solubility fold change) (ratio); higher = more soluble protein in presence of ATP
Procedure, shortened: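 Data come from three independent experiments in which Dounce-homogenised Jurkat crude lysate was treated at eight concentrations from 0.1 to 10 mM. Treatment ran 10 min at room temperature and then 3 min at 37 °C, after which 0.8% NP40 and benzonase were added for 60 min at 4 °C before ultracentrifugation. The supernatant underwent TMT labelling and LC-MS/MS, and vsn-normalised intensities were expressed as fold change against the detergent-processed vehicle in each replicate.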

Row | Target | NP40-soluble protein abundance (concentration: 0.1mM) | NP40-soluble protein abundance (concentration: 0.5mM)
1 | UniProt P63313 | 0.952 ± 0.054 | 0.935 ± 0.072
2 | UniProt P60953 and related entries | 0.92 ± 0.085 | 0.982 ± 0.099
3 | UniProt P68371 | 0.977 ± 0.075 | 1.06 ± 0.13
4 | UniProt P53990 and related entries | 1.04 ± 0.069 | 1.15 ± 0.023
5 | UniProt P62495 | 1.04 ± 0.092 | 1.06 ± 0.071
6 | YARS (UniProt P54577) | 1.02 ± 0.067 | 1.06 ± 0.08
7 | RAB4B (UniProt P61018) | 0.997 ± 0.059 | 0.966 ± 0.036
8 | UniProt P61964 | 0.945 ± 0.029 | 0.958 ± 0.036
9 | UniProt P62899 | 0.943 ± 0.16 | 0.897 ± 0.16
10 | UniProt P56385 | 0.944 ± 0.037 | 1.02 ± 0.015
11 | NCKAP1L (UniProt P55160) | 1.05 ± 0.11 | 1.04 ± 0.06
12 | POLR2K (UniProt P53803) | 0.9902 ± 0.0094 | 1.045 ± 0.0093
13 | UniProt P62314 | 0.928 ± 0.062 | 0.973 ± 0.099
14 | UniProt P84022 | 0.98 ± 0.039 | 0.981 ± 0.063
15 | UniProt Q00013 and related entries | 1.04 ± 0.06 | 1.05 ± 0.043
16 | UniProt P53805 and related entries | 0.898 ± 0.03 | 0.923 ± 0.023
17 | UniProt P62072 | 0.975 ± 0.065 | 0.979 ± 0.11
18 | XIAP (UniProt P98170) | 1.06 ± 0.041 | 1.03 ± 0.04
19 | BLVRA (UniProt P53004) | 1.04 ± 0.089 | 1.05 ± 0.077
20 | BLM (UniProt P54132) | 1.02 ± 0.04 | 1.01 ± 0.029
21 | UniProt P56937 and related entries | 1.02 ± 0.047 | 1.04 ± 0.052
22 | PAFAH1B2 (UniProt P68402) | 0.866 ± 0.03 | 0.928 ± 0.097
23 | UniProt P55036 and related entries | 0.974 ± 0.058 | 0.946 ± 0.05
24 | UniProt P60842 | 1.03 ± 0.065 | 1.09 ± 0.056

Exported comma-delimited: entries from further up
Row,Target,NP40-soluble protein abundance (concentration: 0.1mM),NP40-soluble protein abundance (concentration: 0.5mM)
16,UniProt P53805 and related entries,0.898 ± 0.03,0.923 ± 0.023
20,BLM (UniProt P54132),1.02 ± 0.04,1.01 ± 0.029
